Results are given in words; binding and its absence hold for the method and conditions named. In cells and extracts the contact can be indirect. Here binding means that the protein was enriched with, or labelled near, the bait; the list need not be complete.

Amino acid sequences for entries named in this document (tags omitted). A change or cut given only in a name is not applied to a line headed by its entry.
UniProt A0MNQ6: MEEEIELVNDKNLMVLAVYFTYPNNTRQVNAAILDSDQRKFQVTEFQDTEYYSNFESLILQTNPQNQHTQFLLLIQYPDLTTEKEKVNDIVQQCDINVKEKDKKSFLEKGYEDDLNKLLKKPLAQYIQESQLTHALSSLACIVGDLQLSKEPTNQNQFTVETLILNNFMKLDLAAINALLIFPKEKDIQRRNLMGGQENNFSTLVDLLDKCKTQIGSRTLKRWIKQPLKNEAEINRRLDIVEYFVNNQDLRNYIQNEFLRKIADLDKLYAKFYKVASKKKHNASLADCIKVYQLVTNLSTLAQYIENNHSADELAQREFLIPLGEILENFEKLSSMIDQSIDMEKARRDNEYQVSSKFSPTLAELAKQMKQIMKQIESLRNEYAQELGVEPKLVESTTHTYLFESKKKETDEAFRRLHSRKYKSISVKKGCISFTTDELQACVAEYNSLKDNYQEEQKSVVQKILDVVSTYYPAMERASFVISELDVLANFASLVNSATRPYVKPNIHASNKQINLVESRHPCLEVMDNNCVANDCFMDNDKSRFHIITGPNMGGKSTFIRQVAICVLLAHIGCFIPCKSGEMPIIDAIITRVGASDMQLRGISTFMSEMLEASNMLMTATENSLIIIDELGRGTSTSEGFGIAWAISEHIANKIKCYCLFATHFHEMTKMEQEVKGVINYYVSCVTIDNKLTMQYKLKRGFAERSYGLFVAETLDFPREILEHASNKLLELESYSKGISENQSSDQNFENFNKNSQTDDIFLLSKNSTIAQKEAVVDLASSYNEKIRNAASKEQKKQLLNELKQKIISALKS
UniProt I7MGE9: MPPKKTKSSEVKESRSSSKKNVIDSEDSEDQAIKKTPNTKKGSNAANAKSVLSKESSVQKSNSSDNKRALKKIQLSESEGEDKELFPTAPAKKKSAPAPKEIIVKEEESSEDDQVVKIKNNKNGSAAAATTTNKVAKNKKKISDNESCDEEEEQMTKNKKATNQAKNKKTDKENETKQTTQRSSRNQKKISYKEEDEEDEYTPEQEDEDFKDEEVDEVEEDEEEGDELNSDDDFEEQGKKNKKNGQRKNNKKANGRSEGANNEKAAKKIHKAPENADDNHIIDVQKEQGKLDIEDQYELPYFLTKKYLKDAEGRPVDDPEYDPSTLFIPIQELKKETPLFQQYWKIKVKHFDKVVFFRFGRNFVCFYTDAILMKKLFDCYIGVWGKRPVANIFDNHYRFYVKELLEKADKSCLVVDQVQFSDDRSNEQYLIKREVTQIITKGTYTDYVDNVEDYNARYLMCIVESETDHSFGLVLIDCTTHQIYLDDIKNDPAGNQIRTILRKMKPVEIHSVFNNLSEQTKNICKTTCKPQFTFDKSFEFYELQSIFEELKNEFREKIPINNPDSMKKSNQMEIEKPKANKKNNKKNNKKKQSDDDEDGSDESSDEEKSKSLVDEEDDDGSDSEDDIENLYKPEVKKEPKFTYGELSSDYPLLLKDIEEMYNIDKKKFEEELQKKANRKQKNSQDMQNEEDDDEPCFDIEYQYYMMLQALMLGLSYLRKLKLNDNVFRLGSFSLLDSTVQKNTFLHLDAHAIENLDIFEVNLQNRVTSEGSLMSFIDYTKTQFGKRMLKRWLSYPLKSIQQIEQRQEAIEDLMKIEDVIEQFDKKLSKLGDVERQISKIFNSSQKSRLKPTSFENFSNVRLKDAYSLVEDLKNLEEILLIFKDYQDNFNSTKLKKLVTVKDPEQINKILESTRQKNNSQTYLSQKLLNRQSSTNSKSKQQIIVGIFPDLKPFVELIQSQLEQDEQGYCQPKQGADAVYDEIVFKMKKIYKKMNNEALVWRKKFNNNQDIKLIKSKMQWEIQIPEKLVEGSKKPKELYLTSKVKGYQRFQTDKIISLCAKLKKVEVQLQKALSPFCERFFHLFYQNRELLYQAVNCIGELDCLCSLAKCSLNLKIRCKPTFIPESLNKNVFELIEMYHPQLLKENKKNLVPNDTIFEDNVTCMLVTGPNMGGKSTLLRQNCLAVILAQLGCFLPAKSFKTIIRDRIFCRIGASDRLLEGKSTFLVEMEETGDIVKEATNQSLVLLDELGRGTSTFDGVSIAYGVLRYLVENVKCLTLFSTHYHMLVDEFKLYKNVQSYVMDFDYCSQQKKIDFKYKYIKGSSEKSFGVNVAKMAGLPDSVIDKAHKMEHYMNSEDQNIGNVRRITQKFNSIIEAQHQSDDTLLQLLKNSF
UniProt Q23MC5: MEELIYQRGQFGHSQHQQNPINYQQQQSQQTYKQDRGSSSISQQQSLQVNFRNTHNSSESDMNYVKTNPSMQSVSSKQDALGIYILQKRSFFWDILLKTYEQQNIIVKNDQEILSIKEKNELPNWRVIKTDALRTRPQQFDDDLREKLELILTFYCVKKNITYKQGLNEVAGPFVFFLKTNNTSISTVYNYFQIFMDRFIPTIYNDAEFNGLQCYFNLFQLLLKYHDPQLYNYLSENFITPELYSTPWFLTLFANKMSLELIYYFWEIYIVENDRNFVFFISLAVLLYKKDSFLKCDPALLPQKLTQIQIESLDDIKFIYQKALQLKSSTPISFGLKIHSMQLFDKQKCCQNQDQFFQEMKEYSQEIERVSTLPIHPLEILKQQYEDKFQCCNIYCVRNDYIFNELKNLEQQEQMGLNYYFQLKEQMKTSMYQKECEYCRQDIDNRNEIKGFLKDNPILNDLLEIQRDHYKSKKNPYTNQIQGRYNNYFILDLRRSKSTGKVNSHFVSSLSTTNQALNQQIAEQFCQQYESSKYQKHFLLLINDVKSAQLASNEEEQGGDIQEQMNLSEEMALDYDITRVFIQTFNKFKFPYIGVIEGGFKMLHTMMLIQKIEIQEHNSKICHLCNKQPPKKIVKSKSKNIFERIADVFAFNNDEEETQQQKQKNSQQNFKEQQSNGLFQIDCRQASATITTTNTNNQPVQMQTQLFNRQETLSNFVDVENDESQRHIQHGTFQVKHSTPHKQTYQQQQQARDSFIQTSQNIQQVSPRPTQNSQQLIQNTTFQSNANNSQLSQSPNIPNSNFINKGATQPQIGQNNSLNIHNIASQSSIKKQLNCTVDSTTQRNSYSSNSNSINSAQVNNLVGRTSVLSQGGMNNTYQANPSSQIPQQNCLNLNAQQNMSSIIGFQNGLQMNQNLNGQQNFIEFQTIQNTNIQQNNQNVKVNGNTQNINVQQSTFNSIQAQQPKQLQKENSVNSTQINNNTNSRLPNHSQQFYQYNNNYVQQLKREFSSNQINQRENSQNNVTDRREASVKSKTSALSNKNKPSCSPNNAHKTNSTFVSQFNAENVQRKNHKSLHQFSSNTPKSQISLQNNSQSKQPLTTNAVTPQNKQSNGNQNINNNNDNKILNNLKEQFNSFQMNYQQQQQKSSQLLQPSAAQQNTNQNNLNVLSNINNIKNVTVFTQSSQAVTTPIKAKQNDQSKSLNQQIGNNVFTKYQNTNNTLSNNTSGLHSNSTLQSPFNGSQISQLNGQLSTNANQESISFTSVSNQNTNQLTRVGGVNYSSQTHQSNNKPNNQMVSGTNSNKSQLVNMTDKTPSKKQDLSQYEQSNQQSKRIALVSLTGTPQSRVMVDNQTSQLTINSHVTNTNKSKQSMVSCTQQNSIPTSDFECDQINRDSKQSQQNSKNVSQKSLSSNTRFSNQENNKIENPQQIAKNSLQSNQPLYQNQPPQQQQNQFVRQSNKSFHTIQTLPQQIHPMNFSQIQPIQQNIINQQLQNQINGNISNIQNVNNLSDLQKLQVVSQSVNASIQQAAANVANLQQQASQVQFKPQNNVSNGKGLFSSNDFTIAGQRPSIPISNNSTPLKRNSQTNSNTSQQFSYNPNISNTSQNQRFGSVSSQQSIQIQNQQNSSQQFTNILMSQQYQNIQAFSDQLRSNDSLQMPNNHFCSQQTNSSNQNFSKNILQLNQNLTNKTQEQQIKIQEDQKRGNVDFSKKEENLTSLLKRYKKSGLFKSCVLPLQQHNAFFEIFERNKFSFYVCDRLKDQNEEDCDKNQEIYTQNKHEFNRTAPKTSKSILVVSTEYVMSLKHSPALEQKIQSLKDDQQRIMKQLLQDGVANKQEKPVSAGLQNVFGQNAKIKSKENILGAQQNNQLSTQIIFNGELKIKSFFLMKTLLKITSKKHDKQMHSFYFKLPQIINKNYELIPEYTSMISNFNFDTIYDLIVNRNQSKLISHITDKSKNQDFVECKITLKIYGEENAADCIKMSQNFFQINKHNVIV
UniProt Q23R52: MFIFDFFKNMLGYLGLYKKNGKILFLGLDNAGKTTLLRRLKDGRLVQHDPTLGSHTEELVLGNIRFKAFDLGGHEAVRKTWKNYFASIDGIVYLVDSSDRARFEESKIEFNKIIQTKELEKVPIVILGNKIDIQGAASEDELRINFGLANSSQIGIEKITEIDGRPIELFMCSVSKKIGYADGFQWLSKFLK
UniProt Q22CV2: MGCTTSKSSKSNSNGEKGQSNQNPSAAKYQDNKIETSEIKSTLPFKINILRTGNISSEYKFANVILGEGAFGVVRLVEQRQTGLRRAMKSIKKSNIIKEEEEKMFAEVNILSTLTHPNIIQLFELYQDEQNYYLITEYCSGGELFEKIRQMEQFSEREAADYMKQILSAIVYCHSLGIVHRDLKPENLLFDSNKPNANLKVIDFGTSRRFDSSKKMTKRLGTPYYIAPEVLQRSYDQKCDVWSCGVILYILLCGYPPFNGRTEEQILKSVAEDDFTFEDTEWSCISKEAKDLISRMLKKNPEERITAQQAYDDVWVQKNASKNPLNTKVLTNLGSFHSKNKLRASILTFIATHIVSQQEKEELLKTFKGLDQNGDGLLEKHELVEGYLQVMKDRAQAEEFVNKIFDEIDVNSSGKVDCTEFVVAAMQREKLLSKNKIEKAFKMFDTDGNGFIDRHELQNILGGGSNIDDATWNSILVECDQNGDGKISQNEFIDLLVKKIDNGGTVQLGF
UniProt I7M9I3: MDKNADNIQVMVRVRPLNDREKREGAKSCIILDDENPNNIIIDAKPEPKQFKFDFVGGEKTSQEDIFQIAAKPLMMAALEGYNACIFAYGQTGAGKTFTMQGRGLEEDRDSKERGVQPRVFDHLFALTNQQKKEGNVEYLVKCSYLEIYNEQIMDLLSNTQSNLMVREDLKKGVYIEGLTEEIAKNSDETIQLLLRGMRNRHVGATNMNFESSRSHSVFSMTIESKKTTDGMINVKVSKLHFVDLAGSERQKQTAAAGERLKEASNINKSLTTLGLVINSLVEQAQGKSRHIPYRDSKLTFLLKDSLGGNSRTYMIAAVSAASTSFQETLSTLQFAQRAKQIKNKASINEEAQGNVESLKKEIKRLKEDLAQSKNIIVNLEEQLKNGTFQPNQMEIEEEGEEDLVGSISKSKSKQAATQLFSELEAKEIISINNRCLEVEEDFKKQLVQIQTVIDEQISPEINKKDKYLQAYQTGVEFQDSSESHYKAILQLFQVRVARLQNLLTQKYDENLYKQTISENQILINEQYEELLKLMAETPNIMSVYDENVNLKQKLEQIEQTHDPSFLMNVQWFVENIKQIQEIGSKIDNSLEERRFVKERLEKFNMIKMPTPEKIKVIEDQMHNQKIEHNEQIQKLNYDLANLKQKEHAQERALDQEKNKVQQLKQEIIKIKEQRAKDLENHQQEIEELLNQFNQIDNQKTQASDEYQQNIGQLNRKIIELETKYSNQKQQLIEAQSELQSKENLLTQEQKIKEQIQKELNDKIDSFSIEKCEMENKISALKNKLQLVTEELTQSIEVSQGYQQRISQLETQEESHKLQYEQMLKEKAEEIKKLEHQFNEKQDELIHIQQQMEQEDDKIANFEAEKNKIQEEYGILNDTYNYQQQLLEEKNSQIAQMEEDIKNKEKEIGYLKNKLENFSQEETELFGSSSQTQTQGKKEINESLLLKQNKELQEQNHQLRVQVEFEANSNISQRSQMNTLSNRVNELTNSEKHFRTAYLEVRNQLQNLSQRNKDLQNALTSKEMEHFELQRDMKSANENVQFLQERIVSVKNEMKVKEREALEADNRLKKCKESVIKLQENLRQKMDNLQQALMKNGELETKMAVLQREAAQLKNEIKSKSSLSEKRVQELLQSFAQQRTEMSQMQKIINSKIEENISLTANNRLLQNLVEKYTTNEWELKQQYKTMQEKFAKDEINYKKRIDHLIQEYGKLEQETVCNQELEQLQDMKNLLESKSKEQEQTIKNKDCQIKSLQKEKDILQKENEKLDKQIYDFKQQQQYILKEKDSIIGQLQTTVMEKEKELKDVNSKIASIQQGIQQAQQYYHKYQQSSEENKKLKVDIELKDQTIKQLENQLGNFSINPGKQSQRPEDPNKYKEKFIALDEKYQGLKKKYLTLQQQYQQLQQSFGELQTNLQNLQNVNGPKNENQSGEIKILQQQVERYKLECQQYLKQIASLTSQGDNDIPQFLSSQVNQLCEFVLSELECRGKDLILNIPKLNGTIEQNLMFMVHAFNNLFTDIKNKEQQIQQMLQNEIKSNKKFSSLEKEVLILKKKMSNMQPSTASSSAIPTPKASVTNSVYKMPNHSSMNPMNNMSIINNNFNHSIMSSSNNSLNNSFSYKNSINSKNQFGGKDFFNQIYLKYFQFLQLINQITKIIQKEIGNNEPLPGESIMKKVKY

In the test the target is Msh2-3HA (Tetrahymena thermophila) (UniProt A0MNQ6). Briefly: affinity purification with mass spectrometry; Msh2-3HA captured with HA antibody (Pierce HA-tag magnetic IP/Co-IP kit) from 3.5 x 10^7 cells at 3 h of conjugation; trypsin digest, LC-MS/MS, MaxQuant; wild-type lysate without HA tag as blank control; hits: iBAQ WT/iBAQ Msh2-3HA <= 0.05.
In the case of “Dynein Heavy chain Dyh3 (TTHERM_01276420) (from UniProt Q22A67 1-4620)”, the binding entry is on record as “binds”.

For “Dynein Heavy chain Dyh17 (TTHERM_00850620) (from UniProt Q23R22)”, the binding entry was “binds”.

Take “Msh6L3 (TTHERM_00150000) (from UniProt I7MGE9)”: the binding entry was “binds”. On to TTHERM_00151470 (from UniProt I7MGG8), for which the binding result was “binds”.

In the case of TTHERM_00241700 (from UniProt I7M403), the binding entry is recorded as “binds”.

For the substance TTHERM_00621340 (from UniProt Q23MC5), the binding entry is on record as “binds”. In the case of TTHERM_00622710 (from UniProt Q241B3) it was “binds”; in that of TTHERM_00723640 (from UniProt I7MFS4), “binds”; in that of TTHERM_00849320 (from UniProt Q23R52), “binds”. With TTHERM_00969600 (from UniProt Q24DL4) the entry was “binds”. Turning to TTHERM_01015890 (from UniProt Q22CV2), the binding entry is on record as “binds”. In the case of “kinesin motor catalytic domain protein (TTHERM_00564530) (from UniProt I7M9I3)”, the binding result is “binds”.
